This is an account of results in paper PMC11112123.

The chains behind the UniProt entries cited, without tags or fusion partners.
UniProt Q8WVS4: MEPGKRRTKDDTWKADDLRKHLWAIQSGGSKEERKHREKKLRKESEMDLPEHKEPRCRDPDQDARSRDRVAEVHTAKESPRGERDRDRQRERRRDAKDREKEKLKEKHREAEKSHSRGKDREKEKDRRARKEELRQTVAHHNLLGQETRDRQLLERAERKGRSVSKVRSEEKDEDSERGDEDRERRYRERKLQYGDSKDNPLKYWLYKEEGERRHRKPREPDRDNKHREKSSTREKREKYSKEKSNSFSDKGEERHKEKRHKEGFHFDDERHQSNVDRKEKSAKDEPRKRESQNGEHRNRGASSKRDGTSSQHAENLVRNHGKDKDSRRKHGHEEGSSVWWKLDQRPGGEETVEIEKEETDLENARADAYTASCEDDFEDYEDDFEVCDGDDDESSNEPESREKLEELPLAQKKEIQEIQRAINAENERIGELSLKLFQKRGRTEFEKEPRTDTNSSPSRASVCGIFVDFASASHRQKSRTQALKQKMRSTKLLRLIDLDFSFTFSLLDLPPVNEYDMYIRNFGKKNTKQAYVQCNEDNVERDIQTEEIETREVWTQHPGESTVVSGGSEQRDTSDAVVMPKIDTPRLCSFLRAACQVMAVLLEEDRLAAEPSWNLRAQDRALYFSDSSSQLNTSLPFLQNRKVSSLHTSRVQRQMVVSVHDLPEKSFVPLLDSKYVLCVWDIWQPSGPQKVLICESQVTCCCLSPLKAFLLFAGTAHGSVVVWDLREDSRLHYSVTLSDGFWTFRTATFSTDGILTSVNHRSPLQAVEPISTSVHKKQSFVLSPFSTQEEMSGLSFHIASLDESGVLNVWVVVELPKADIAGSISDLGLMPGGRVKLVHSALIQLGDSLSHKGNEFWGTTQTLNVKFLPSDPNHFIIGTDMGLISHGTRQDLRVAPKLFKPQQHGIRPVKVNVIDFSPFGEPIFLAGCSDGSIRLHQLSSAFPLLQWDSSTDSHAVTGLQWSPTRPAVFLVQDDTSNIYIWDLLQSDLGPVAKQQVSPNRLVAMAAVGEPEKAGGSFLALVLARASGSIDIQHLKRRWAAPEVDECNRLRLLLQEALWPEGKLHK
UniProt P63172: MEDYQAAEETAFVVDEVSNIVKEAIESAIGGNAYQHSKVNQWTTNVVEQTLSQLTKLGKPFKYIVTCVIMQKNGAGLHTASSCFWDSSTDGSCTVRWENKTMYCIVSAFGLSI
UniProt P51808: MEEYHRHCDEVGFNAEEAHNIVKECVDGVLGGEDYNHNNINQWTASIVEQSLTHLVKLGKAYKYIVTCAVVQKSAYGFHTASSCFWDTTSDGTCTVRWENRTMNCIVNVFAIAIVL
UniProt Q8NCM8: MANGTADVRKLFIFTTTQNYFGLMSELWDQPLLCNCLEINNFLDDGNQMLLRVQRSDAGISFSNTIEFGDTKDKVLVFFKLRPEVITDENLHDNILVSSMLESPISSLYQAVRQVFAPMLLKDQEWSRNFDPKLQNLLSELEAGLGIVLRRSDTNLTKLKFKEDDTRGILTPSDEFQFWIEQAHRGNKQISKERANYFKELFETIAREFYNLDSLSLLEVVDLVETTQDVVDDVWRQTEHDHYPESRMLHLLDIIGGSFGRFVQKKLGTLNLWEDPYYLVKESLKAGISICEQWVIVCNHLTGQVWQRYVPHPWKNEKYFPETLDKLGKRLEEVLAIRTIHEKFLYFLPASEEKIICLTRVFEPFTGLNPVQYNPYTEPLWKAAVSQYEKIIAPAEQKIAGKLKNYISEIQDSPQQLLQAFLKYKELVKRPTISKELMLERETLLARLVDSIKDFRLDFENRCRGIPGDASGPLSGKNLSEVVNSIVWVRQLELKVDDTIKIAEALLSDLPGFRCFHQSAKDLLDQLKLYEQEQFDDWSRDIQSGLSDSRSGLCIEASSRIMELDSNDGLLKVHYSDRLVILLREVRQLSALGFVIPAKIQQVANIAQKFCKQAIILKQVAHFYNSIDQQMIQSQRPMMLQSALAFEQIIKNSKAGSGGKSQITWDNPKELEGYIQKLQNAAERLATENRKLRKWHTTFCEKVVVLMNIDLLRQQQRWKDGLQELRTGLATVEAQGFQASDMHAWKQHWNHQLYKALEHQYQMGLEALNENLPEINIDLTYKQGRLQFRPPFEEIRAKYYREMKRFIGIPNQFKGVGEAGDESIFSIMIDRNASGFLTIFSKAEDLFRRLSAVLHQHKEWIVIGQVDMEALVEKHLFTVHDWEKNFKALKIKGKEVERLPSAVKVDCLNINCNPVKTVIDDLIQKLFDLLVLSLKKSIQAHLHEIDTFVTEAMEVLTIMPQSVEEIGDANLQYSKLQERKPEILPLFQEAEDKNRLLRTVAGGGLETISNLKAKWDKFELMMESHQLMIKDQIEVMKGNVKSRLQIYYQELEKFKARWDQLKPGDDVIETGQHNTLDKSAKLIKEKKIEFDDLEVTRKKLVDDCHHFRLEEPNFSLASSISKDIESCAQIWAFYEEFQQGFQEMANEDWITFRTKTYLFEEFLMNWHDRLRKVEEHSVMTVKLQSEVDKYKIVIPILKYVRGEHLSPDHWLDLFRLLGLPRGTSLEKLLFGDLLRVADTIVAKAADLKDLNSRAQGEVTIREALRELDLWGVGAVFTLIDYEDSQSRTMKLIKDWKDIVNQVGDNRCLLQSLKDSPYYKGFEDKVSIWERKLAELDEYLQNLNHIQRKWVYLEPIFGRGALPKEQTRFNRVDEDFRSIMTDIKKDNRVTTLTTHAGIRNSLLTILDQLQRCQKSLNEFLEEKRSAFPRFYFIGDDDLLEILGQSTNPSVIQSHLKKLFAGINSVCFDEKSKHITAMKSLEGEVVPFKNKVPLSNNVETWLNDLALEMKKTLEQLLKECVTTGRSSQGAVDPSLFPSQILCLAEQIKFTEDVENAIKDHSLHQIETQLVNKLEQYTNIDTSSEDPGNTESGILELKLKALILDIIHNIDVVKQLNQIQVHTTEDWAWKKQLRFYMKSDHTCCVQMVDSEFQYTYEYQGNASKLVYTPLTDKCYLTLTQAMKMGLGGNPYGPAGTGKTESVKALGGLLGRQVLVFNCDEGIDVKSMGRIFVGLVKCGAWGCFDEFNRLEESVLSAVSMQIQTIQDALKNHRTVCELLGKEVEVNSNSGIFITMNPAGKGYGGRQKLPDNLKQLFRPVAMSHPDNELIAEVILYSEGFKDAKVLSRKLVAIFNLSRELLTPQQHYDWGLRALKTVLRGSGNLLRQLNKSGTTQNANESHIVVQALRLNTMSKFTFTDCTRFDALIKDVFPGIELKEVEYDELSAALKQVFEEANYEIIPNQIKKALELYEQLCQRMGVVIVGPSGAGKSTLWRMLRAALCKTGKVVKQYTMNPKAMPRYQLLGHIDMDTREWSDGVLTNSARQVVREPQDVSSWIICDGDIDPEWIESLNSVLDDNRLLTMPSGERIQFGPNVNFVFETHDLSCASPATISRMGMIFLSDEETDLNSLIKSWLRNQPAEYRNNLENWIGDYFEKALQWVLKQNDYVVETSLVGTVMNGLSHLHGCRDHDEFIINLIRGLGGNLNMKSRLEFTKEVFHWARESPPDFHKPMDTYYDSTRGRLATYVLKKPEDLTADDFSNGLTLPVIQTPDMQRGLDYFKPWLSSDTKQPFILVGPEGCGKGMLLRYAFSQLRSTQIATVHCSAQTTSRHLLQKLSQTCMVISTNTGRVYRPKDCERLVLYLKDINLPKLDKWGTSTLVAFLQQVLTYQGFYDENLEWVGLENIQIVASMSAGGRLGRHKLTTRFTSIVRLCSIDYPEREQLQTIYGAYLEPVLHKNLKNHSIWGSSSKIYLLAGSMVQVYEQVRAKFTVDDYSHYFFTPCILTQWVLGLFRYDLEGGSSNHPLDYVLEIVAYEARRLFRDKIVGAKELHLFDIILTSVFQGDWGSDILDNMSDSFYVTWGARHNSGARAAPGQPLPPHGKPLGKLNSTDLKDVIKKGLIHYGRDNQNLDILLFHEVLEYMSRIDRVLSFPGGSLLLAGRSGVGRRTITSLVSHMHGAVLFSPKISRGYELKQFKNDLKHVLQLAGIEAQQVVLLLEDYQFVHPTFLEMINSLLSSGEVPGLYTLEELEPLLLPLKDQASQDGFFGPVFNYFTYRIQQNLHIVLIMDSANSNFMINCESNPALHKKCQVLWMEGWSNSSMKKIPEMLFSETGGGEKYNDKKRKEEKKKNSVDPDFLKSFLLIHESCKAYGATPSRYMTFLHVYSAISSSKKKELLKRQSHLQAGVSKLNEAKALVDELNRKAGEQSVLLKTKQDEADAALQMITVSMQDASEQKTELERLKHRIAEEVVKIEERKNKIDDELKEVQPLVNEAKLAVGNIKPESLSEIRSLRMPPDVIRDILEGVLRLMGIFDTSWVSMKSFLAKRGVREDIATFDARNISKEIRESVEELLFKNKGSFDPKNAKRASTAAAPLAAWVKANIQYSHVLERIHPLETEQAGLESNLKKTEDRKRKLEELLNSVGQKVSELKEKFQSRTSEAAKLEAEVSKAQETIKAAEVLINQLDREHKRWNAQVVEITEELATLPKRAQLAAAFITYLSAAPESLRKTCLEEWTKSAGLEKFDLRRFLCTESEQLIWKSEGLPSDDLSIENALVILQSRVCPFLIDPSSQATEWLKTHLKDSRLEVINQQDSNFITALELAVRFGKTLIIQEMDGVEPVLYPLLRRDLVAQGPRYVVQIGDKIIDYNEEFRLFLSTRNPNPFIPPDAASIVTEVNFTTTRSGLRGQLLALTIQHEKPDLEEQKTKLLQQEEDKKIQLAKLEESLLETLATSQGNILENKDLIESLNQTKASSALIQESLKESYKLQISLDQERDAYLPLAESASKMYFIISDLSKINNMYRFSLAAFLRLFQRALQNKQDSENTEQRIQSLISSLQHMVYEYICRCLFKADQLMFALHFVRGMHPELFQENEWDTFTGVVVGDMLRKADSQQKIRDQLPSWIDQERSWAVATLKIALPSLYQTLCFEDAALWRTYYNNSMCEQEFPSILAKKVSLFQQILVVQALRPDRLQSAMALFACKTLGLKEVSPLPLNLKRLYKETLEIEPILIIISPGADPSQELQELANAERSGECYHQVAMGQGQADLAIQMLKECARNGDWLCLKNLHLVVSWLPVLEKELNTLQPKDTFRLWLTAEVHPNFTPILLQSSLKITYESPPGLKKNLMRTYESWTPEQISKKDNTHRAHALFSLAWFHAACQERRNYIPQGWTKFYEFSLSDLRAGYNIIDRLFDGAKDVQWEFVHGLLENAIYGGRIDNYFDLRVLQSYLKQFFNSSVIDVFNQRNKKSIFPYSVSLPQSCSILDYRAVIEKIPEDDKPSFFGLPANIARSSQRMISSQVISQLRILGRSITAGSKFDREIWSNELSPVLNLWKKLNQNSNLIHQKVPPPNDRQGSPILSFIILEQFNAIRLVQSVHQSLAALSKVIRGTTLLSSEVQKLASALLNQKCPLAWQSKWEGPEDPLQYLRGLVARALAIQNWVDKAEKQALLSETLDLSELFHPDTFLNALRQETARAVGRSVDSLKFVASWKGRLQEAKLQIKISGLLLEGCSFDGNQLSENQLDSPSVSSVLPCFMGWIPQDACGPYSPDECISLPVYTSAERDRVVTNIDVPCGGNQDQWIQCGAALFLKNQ
UniProt Q96EX3: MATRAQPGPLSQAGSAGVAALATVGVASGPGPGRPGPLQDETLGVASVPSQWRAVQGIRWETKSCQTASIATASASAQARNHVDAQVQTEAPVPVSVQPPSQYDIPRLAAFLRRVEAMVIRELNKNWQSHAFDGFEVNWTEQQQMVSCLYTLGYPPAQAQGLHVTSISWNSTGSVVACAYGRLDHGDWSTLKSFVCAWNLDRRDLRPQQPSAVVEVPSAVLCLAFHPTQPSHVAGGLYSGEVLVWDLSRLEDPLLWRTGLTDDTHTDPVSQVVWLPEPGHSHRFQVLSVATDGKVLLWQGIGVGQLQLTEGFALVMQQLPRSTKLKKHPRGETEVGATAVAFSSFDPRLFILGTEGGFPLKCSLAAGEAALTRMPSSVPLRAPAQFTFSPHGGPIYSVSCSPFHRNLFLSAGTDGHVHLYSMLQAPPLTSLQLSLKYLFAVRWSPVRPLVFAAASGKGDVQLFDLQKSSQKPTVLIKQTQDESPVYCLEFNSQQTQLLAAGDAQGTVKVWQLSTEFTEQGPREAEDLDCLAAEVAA

Results are given in words; binding and its absence hold for the method and conditions named. In cells and extracts the contact can be indirect. A yes stands for co-enrichment or nearness to the bait. Other partners may have been found. A no says only that the protein was not detected with the bait.

This assay has as its target HA–WDR60 (human) (UniProt Q8WVS4). Nature of the assay: affinity purification with mass spectrometry; HA–WDR60 on HA–agarose beads from transfected RPE1 WT and CEP170 KO cells, trypsin digest, TMT labelling; abundance against HA–GFP; three independent experiments.
Take CEP170B (from UniProt Q9Y4F5 1-1589): the binding result was “no binding”.
The entry for “DYNLT1 (TCTEX1) (from UniProt P63172 1-113)” is “binds”.
As for “DYNLT3 (TCTEX3) (from UniProt P51808 1-116)”, the binding entry is recorded as “binds”.
The entry for “dynein-2 heavy chain (DHC2) (from UniProt Q8NCM8 1-4307)” is “binds”; for “intermediate chain WDR34 (from UniProt Q96EX3 1-536)” it is “binds”.
